Our source for the binding values is publication PMC5989226 (Nature Communications, 2018).

Results are given in words; binding and its absence hold for the method and conditions named. For part of these data: A result given as binding can be weak or reduced; the word gives no strength. For part of these data: Tags and fused reporters may be left off the sequences shown.

Common to all, as to experiment: two-hybrid; Matchmaker Gold, Y2H gold strain; fusions from pASGW-attR and pACTGW-attR (GAL4BD-DOG1 and GAL4AD-PP2Cs in Fig. 4a); growth on QDO/A plates, 7 days
The target of assay [1] is T1, DOG1-Like 3 (DOGL3), yeast two-hybrid fusion (Arabidopsis) (UniProt Q58FV0).
T1 sequence: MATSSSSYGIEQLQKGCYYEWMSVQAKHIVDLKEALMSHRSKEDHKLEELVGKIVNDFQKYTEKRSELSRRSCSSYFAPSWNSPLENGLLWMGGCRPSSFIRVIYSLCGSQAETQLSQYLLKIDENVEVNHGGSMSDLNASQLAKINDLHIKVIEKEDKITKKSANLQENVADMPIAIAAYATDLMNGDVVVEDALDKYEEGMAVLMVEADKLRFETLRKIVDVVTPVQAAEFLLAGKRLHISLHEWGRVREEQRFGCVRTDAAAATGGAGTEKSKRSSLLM

Assay [2] deals with T2, GAL4BD-DOG1 (Arabidopsis) (UniProt A0SVK0).
T2 sequence: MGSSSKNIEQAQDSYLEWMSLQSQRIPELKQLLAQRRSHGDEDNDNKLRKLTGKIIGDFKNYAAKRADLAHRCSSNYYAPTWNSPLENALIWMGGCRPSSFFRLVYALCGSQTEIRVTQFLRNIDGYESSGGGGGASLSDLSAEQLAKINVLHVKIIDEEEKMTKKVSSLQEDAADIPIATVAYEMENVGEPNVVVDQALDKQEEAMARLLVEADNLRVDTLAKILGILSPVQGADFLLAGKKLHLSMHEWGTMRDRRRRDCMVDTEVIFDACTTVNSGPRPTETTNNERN

For assay [3], the target named is T3, GAL4AD-AHG1 (Arabidopsis) (UniProt Q9FLI3).
T3 sequence: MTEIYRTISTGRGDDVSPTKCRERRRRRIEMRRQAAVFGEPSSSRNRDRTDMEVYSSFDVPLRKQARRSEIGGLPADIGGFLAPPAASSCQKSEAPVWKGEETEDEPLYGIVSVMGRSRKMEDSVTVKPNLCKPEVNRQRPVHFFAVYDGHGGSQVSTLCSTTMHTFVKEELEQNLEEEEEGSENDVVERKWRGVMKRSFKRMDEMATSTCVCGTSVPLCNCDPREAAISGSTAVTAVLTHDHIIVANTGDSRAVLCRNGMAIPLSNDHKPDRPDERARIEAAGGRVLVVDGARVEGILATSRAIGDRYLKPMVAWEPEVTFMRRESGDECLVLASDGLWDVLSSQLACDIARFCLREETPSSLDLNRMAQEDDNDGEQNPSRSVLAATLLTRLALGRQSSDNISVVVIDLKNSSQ

In assay [4] the target is DOGL5.2, yeast two-hybrid fusion (Arabidopsis).

GAL4AD-HAB1 (Arabidopsis) (enzyme): the binding result in assay [1] and in assay [2] was “no binding” throughout. Turning to “FVE/MSI4, yeast two-hybrid fusion (Arabidopsis)”, in assay [3], the binding result is recorded as “binds”.

In the case of GAL4AD-HAI3 (Arabidopsis) (enzyme), the binding result in assay [2] was “binds”.

B1: GAL4AD-AHG1 (enzyme, UniProt Q9FLI3 1-416)
chain: T3 sequence
As for B1, the binding entry in assay [4] is “binds”.

B2: GAL4AD-HAB2 (enzyme, UniProt Q9LNP9 1-511)
chain: MEEISPAVALTLGLANTMCDSGISSTFDISELENVTDAADMLCNQKRQRYSNGVVDCIMGSVSEEKTLSEVRSLSSDFSVTVQESEEDEPLVSDATIISEGLIVVDARSEISLPDTVETDNGRVLATAIILNETTIEQVPTAEVLIASLNHDVNMEVATSEVVIRLPEENPNVARGSRSVYELECIPLWGTISICGGRSEMEDAVRALPHFLKIPIKMLMGDHEGMSPSLPYLTSHFFGVYDGHGGAQVADYCHDRIHSALAEEIERIKEELCRRNTGEGRQVQWEKVFVDCYLKVDDEVKGKINRPVVGSSDRMVLEAVSPETVGSTAVVALVCSSHIIVSNCGDSRAVLLRGKDSMPLSVDHKPDREDEYARIEKAGGKVIQWQGARVSGVLAMSRSIGDQYLEPFVIPDPEVTFMPRAREDECLILASDGLWDVMSNQEACDFARRRILAWHKKNGALPLAERGVGEDQACQAAAEYLSKLAIQMGSKDNISIIVIDLKAQRKFKTRS
For the molecule B2, the binding entry in assay [4] is recorded as “no binding”.
